Data published in the supplement of paper PMC6411743.
± gives the standard deviation of the averaged measurements. This is a selection; strong and weak results do not stand in their true shares.

By UniProt entry, the sequences of proteins in these tests, tags left out. Where a name states a change or a piece, a line headed by the entry shows the natural chain unless it says otherwise.
UniProt O94952: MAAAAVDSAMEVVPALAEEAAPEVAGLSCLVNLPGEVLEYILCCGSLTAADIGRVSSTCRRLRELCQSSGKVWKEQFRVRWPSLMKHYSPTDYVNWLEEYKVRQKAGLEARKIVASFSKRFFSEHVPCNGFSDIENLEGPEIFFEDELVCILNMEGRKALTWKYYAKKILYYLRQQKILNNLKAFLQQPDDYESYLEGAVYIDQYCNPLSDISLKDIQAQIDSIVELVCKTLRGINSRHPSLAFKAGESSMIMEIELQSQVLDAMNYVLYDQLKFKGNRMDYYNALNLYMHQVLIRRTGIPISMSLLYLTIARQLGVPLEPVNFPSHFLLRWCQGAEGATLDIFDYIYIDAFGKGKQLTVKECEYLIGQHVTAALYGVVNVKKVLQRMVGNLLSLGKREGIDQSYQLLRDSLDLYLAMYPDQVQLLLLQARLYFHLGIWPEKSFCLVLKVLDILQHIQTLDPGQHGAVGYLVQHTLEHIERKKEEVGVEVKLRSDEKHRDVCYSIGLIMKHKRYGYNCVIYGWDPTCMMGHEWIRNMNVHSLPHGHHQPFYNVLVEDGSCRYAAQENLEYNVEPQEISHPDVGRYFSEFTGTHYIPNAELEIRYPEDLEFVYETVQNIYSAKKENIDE
UniProt P63241: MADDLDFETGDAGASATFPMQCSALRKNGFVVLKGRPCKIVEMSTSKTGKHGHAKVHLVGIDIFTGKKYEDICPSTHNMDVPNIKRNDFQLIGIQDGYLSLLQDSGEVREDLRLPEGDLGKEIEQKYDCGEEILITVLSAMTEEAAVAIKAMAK
UniProt Q9Y592: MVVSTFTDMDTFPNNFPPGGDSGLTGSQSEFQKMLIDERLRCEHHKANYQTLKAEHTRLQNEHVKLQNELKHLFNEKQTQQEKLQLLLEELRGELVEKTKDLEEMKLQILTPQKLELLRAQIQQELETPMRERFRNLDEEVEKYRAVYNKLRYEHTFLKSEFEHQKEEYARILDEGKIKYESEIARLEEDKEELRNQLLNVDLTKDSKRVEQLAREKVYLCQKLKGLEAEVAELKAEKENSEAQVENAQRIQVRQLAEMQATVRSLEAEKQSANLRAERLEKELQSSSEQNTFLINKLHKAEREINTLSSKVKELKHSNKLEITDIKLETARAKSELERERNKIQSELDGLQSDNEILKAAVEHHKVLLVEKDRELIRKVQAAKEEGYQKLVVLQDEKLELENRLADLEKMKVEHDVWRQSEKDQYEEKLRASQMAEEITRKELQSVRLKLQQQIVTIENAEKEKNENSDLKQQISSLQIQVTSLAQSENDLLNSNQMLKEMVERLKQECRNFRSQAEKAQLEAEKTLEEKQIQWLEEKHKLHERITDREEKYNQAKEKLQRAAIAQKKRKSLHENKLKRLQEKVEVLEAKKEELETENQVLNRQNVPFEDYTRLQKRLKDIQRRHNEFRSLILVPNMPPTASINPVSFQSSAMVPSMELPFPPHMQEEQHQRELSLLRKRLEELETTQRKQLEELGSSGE
UniProt Q9H0E9, whole entry: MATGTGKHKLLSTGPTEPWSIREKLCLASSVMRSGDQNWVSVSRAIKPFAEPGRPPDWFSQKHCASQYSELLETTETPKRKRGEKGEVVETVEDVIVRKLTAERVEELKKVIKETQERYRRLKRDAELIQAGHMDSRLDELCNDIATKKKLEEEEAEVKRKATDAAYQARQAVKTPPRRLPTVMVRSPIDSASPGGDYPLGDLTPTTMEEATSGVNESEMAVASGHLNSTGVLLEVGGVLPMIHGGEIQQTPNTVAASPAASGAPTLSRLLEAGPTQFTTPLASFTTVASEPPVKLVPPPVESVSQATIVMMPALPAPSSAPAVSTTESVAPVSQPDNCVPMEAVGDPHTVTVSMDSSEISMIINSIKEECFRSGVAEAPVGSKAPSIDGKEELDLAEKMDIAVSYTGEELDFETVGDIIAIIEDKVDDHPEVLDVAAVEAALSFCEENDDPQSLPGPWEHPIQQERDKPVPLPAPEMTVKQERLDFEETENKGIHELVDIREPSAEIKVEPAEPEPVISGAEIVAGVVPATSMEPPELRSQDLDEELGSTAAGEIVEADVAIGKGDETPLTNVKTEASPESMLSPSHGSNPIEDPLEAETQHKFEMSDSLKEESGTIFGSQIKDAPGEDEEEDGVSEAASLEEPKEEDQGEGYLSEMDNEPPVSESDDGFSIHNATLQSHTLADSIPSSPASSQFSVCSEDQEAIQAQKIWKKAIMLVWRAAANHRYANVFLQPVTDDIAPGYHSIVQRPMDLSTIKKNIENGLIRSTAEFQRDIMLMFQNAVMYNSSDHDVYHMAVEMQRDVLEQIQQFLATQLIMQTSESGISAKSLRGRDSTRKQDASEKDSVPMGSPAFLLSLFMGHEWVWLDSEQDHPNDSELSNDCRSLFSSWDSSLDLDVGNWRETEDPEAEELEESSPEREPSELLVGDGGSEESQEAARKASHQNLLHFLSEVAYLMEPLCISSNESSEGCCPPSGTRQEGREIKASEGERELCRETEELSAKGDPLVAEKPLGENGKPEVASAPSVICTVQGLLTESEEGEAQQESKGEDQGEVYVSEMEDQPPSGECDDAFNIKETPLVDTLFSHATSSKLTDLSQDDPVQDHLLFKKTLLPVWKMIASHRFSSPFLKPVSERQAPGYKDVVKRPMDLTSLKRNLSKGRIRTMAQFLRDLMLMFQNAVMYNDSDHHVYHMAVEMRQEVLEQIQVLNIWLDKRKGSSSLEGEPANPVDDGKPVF
UniProt Q8N0W3: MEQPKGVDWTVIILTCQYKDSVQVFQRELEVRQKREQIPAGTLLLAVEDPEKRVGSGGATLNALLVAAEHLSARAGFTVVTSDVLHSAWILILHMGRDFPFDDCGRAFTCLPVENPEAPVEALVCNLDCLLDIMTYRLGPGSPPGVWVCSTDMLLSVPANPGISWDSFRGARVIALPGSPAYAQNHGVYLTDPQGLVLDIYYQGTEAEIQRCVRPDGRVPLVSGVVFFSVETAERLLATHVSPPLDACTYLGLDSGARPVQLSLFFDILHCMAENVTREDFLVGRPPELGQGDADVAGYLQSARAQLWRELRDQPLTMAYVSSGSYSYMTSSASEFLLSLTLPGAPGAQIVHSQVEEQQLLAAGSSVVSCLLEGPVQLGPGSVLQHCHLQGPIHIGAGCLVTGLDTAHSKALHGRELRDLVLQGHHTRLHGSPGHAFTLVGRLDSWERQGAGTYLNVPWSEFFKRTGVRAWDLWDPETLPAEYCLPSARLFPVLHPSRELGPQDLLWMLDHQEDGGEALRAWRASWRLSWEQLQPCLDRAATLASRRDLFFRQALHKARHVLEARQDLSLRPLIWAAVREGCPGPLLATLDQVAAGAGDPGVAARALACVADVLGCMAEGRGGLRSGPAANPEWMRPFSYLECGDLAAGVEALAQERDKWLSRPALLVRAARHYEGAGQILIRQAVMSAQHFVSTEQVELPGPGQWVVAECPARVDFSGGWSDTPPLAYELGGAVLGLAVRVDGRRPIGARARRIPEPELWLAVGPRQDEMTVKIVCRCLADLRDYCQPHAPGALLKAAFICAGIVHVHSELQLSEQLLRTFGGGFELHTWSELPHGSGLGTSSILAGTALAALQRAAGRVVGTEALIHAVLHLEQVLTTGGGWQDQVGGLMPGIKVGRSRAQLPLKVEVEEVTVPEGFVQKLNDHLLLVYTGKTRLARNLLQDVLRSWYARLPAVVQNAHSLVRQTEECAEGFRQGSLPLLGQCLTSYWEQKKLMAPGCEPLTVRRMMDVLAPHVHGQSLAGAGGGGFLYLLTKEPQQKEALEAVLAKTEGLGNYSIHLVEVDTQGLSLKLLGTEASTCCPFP
UniProt Q8WUI4: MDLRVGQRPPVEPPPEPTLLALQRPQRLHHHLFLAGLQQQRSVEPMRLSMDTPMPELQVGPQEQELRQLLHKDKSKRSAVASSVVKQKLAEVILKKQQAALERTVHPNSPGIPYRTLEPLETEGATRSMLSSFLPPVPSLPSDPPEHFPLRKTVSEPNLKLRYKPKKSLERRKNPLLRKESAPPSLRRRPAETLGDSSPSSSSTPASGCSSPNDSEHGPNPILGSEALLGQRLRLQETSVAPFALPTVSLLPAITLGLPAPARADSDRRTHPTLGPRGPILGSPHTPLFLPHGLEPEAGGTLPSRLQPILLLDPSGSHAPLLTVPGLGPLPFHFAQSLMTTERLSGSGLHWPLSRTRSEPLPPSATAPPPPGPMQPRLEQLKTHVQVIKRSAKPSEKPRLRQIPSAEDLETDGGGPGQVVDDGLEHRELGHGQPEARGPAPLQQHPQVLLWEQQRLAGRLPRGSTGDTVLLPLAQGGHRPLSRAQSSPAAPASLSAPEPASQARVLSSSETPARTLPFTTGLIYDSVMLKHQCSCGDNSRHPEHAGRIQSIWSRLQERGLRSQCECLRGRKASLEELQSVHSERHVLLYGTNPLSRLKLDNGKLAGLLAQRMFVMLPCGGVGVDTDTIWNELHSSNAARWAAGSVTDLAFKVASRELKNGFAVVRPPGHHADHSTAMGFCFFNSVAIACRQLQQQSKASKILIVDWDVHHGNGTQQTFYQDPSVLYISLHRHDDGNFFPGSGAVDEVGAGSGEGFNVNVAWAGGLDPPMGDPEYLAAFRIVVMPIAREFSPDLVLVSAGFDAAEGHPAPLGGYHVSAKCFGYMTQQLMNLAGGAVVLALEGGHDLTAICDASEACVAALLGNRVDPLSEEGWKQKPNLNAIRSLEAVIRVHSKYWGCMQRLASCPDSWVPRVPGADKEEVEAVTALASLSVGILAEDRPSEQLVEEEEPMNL
UniProt Q06323: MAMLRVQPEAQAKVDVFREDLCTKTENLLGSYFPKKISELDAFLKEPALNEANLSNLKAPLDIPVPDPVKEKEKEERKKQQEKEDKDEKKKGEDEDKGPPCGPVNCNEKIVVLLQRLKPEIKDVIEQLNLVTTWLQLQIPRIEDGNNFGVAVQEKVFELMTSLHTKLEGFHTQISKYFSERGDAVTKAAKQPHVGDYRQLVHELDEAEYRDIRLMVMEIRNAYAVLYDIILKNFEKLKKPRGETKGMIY
UniProt Q9NXG2: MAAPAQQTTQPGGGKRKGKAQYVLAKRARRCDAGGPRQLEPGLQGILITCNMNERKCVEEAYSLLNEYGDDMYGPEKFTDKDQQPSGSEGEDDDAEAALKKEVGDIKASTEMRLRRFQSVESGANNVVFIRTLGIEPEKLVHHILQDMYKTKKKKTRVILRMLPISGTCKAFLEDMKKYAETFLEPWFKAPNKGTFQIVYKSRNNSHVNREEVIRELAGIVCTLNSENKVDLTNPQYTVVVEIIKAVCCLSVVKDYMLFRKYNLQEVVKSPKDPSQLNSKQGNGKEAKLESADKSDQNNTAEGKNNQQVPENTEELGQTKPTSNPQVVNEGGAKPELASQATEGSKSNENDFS
UniProt P47736: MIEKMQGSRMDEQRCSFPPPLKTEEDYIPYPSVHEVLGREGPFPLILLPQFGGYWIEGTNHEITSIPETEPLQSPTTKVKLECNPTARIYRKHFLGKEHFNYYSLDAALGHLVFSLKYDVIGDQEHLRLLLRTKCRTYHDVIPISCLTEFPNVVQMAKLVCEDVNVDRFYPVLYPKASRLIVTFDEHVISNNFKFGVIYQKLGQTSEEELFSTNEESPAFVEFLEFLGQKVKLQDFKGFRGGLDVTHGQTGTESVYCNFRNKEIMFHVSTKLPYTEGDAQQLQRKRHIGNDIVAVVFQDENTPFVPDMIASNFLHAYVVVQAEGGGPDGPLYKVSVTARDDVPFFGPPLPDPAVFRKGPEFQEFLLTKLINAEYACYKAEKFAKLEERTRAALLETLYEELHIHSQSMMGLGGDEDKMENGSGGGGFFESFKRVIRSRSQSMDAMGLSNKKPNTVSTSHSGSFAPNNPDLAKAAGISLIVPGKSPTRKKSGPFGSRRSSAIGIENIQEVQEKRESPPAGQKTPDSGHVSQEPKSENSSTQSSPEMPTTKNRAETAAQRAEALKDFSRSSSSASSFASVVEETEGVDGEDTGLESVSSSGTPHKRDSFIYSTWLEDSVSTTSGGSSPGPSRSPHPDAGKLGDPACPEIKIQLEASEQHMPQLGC
UniProt Q5JPH6: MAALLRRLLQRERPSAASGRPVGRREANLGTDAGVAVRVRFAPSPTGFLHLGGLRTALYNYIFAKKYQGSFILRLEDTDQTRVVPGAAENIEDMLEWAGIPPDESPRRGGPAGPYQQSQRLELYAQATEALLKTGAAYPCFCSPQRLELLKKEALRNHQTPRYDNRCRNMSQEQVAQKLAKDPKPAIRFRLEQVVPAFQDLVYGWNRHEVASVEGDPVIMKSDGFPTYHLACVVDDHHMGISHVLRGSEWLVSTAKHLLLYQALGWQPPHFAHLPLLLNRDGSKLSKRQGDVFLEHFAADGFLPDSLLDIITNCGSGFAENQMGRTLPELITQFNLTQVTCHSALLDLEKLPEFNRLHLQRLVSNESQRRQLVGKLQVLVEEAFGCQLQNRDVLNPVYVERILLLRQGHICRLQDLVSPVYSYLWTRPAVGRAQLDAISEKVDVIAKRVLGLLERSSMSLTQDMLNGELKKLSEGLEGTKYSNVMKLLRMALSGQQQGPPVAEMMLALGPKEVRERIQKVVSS

Compound: Nc1ncnc2c1ncn2[C@@H]1O[C@H](COP(=O)(O)OP(=O)(O)NP(=O)(O)O)[C@@H](O)[C@H]1O [adenylyl imidodiphosphate]
Assay: NP40-soluble protein abundance relative to vehicle (solubility fold change) (ratio); higher = more soluble protein in presence of AMP-PNP
Summary of the method: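 Each value is a fold change relative to the detergent-processed vehicle, calculated per replicate from vsn-normalised intensities. Jurkat crude lysate received eight concentrations (0.1 to 10 mM) for 10 min at room temperature and 3 min at 37 °C, then was solubilised in 0.8% NP40 with benzonase (60 min, 4 °C). The ultracentrifuged supernatant was TMT-labelled and run by LC-MS/MS in three independent experiments.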

Target | NP40-soluble protein abundance (concentration: 1mM) | NP40-soluble protein abundance (concentration: 2mM) | NP40-soluble protein abundance (concentration: 4mM) | NP40-soluble protein abundance (concentration: 6mM) | NP40-soluble protein abundance (concentration: 8mM) | NP40-soluble protein abundance (concentration: 10mM)
G5E9G0 and related entries (UniProt P39023) | 0.939 ± 0.073 | 0.905 ± 0.1 | 0.899 ± 0.11 | 0.867 ± 0.096 | 0.786 ± 0.036 | 0.875 ± 0.14
H0YIE9 and related entries (UniProt O94952) | 0.991 ± 0.03 | 0.926 ± 0.052 | 0.967 ± 0.047 | 0.987 ± 0.05 | 1.02 ± 0.029 | 0.99 ± 0.039
H3BRN4 and related entries (UniProt P80404) | 0.997 ± 0.023 | 0.943 ± 0.085 | 0.993 ± 0.023 | 0.991 ± 0.031 | 1.02 ± 0.017 | 0.985 ± 0.031
J3KNA0 and related entries (UniProt Q15070) | 0.987 ± 0.04 | 0.961 ± 0.028 | 0.985 ± 0.045 | 0.982 ± 0.018 | 1.02 ± 0.014 | 0.989 ± 0.025
J3KPP0 and related entries (UniProt Q9Y6G3) | 0.964 ± 0.014 | 0.966 ± 0.037 | 0.941 ± 0.033 | 0.949 ± 0.072 | 0.917 ± 0.068 | 0.925 ± 0.074
J3QRS9 and related entries (UniProt O43670) | 1.09 ± 0.073 | 1.09 ± 0.087 | 1.15 ± 0.074 | 1.25 ± 0.065 | 1.29 ± 0.062 | 1.34 ± 0.1
H3BM21 and related entries (UniProt P05106+I3L4X8+H3BM21) | 1 ± 0.012 | 1.02 ± 0.034 | 1.001 ± 0.0047 | 1.03 ± 0.012 | 0.966 ± 0.012 | 0.996 ± 0.013
H7BYU6 and related entries (UniProt Q96K83) | 0.978 ± 0.036 | 0.988 ± 0.015 | 0.986 ± 0.031 | 0.99 ± 0.015 | 0.996 ± 0.027 | 0.984 ± 0.014
H7C5G1 and related entries (UniProt Q2TAA2) | 0.995 ± 0.037 | 0.975 ± 0.015 | 0.98 ± 0.028 | 0.972 ± 0.016 | 0.965 ± 0.022 | 0.981 ± 0.028
I3L397 and related entries (UniProt P63241) | 0.835 ± 0.04 | 0.825 ± 0.056 | 0.832 ± 0.069 | 0.835 ± 0.011 | 0.813 ± 0.07 | 0.72 ± 0.065
J3KTA1 and related entries (UniProt Q96IG2) | 0.993 ± 0.029 | 0.976 ± 0.034 | 1.01 ± 0.03 | 1 ± 0.023 | 1.02 ± 0.045 | 1 ± 0.082
J3KNW7 and related entries (UniProt Q9Y592) | 0.9829 ± 0.0023 | 0.9724 ± 0.0032 | 0.977 ± 0.029 | 0.9893 ± 0.0026 | 1.02 ± 0.016 | 1 ± 0.022
H7C127 and related entries (UniProt Q9H0E9) | 1.05 ± 0.042 | 1.085 ± 0.0036 | 1.07 ± 0.02 | 1.05 ± 0.078 | 1.04 ± 0.068 | 1.08 ± 0.081
G5E9L0 and related entries (UniProt Q8N6H7) | 1.02 ± 0.011 | 1.03 ± 0.046 | 0.997 ± 0.033 | 0.973 ± 0.018 | 0.948 ± 0.023 | 0.972 ± 0.029
H0Y398 and related entries (UniProt Q9H8U3) | 0.988 ± 0.01 | 1.04 ± 0.039 | 0.993 ± 0.035 | 1.01 ± 0.02 | 1.03 ± 0.025 | 1.04 ± 0.013
J3KPP4 and related entries (UniProt O95232) | 1.02 ± 0.036 | 1.06 ± 0.058 | 1.06 ± 0.019 | 1.22 ± 0.015 | 1.3 ± 0.039 | 1.51 ± 0.049

Target | NP40-soluble protein abundance (concentration: 1mM) | NP40-soluble protein abundance (concentration: 2mM) | NP40-soluble protein abundance (concentration: 4mM) | NP40-soluble protein abundance (concentration: 6mM) | NP40-soluble protein abundance (concentration: 8mM) | NP40-soluble protein abundance (concentration: 10mM)
J3QSH4 and related entries (UniProt Q14119) | 0.977 ± 0.07 | 1.01 ± 0.1 | 0.974 ± 0.079 | 1.04 ± 0.1 | 0.999 ± 0.092 | 1.07 ± 0.077
H7BXF5 and related entries (UniProt Q9H0E3) | 1.05 ± 0.041 | 1.09 ± 0.035 | 1.02 ± 0.03 | 1.03 ± 0.039 | 0.993 ± 0.016 | 1.05 ± 0.057
J9JID7 and related entries (UniProt Q03252) | 0.989 ± 0.026 | 0.964 ± 0.029 | 0.875 ± 0.042 | 0.81 ± 0.0095 | 0.734 ± 0.023 | 0.769 ± 0.045
J3KSP6 and related entries (UniProt Q8N0W3) | 0.997 ± 0.028 | 0.966 ± 0.015 | 0.996 ± 0.026 | 0.959 ± 0.028 | 0.986 ± 0.02 | 0.943 ± 0.021
G3XAI2 and related entries (UniProt P07942) | 1.01 ± 0.029 | 1.02 ± 0.068 | 1.02 ± 0.029 | 1.008 ± 0.0061 | 0.988 ± 0.033 | 1.028 ± 0.0095
I3L1K6 and related entries (UniProt P12829) | 0.9992 ± 0.0033 | 1.03 ± 0.062 | 0.984 ± 0.011 | 0.975 ± 0.051 | 0.956 ± 0.041 | 0.944 ± 0.027
J3KPH8 and related entries (UniProt Q8WUI4) | 0.979 ± 0.04 | 1 ± 0.027 | 1 ± 0.026 | 0.98 ± 0.024 | 0.998 ± 0.067 | 0.9557 ± 0.0038
H0YL22 and related entries (UniProt Q9Y375) | 1 ± 0.023 | 0.988 ± 0.047 | 0.987 ± 0.038 | 0.953 ± 0.025 | 0.948 ± 0.032 | 0.965 ± 0.026
H7C561 and related entries (UniProt Q15637) | 1.01 ± 0.038 | 1.09 ± 0.1 | 1.01 ± 0.061 | 1.02 ± 0.035 | 0.995 ± 0.018 | 1 ± 0.044
H0YKK6 and related entries (UniProt Q06323) | 0.924 ± 0.058 | 1.01 ± 0.062 | 0.892 ± 0.062 | 0.924 ± 0.062 | 0.908 ± 0.027 | 0.821 ± 0.09
H3BNW0 and related entries (UniProt Q9NXG2) | 0.993 ± 0.021 | 1.05 ± 0.087 | 1.04 ± 0.033 | 1.12 ± 0.086 | 1.11 ± 0.049 | 1.12 ± 0.073
J3KS51 and related entries (UniProt O75376) | 1.02 ± 0.049 | 1.06 ± 0.028 | 1.03 ± 0.035 | 0.989 ± 0.058 | 0.959 ± 0.032 | 1.01 ± 0.046
I3L3Z2 and related entries (UniProt Q9BRA0) | 0.948 ± 0.04 | 1 ± 0.041 | 1 ± 0.032 | 1.01 ± 0.054 | 1 ± 0.028 | 1.01 ± 0.061
H7BXH9 and related entries (UniProt Q8WXB1) | 0.992 ± 0.038 | 0.952 ± 0.044 | 1.01 ± 0.021 | 0.9757 ± 0.0078 | 1.002 ± 0.0044 | 0.9848 ± 0.0041
J3KPC5 and related entries (UniProt P47736) | 0.99 ± 0.024 | 1.02 ± 0.034 | 1.02 ± 0.0079 | 0.9669 ± 0.00046 | 0.956 ± 0.022 | 0.991 ± 0.013
H3BTB7 and related entries (UniProt Q5JPH6) | 0.978 ± 0.042 | 0.934 ± 0.081 | 0.98 ± 0.027 | 0.996 ± 0.043 | 1.006 ± 0.0083 | 0.968 ± 0.015

Some of the entries above in a different format.
Target	NP40-soluble protein abundance (concentration: 1mM)	NP40-soluble protein abundance (concentration: 2mM)	NP40-soluble protein abundance (concentration: 4mM)	NP40-soluble protein abundance (concentration: 6mM)	NP40-soluble protein abundance (concentration: 8mM)	NP40-soluble protein abundance (concentration: 10mM)
I3L1K6 and related entries (UniProt P12829)	0.9992 ± 0.0033	1.03 ± 0.062	0.984 ± 0.011	0.975 ± 0.051	0.956 ± 0.041	0.944 ± 0.027
J3KPH8 and related entries (UniProt Q8WUI4)	0.979 ± 0.04	1 ± 0.027	1 ± 0.026	0.98 ± 0.024	0.998 ± 0.067	0.9557 ± 0.0038
